Results are given in words; binding and its absence hold for the method and conditions named. Some results given as binding are weak or reduced against the parent protein; the word gives no strength.
Experiments:
[1] = molecular target: soluble human Fas ligand (FasL) (human) (UniProt P48023); assay: ELISA on soluble FasL
[2] = molecular target: soluble human Fas ligand (FasL) (human) (UniProt P48023); assay: SPR, BIACORE 8K, multi-dose

By UniProt entry, the sequences of proteins in these tests, tags left out. Where a name states a change or a piece, a line headed by the entry shows the natural chain unless it says otherwise.
UniProt P48023: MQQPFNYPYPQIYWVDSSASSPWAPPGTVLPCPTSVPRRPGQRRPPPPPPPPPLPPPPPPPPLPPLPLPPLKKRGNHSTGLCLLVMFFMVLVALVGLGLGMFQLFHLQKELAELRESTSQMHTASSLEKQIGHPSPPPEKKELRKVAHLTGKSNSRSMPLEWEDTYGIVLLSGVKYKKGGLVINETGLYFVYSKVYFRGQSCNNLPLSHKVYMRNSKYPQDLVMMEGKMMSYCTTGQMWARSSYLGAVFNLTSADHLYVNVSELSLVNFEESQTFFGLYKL

B1: M3T01 (antibody, V domains shown)
VH: QVQLVESGGGVVQPGRSLRLSCAASGFTFSTYGIHWVRQAPGKGLEWVAVIWYDGSDKFYADSVKGRFTISRDNSKNTLYLQMNSLRAEDTAVYYCARDRDNWNYFDYWGQGTLVTVSS
VL: DIQMTQSPSTLSASVGDRVTITCRASQSISSWLAWYQQKPGKAPKFLIYQASSLESGVPSRFSGSGSGTEFTLTISSLQPDDFATYYCQQYNSYITFGQGTRLEIKR
binding [1]: binds
binding [2]: binds

From patent publication US20260167734A1
